Values of other authors, collected in patent US9833451B2 (priority 2007, dated 2017).
Where a name gives a salt, the structure may show the parent alone. Some entries share one result that the patent states for a list of compounds.

Settings: IV administration; cited from earlier work

For CN1C[C@H](C(=O)N[C@]2(C)O[C@@]3(O)[C@@H]4CCCN4C(=O)[C@H](Cc4ccccc4)N3C2=O)C=C2c3cccc4[nH]cc(c34)C[C@H]21 [Ergotamine, ergotamine tartrate], the “onset of therapeutic efficacy” value is given as “less than 30 minutes”.
